# According to publication PMC8230452:
# No constants are given. Whether binding was seen depends on the method and setting. Some results given as binding are weak or reduced against the parent protein; the word gives no strength.
# B1: Physalis mottle virus (PhMV) virus-like particle, unmodified (assembled coat protein) (complex, UniProt P36351 1-188)
# chain: MDSSEVVKVKQASIPAPGSILSQPNTEQSPAIVLPFQFEATTFGTAETAAQVSLQTADPITKLTAPYRHAQIVECKAILTPTDLAVSNPLTVYLAWVPANSPATPTQILRVYGGQSFVLGGAISAAKTIEVPLNLDSVNRMLKDSVTYTDTPKLLAYSRAPTNPSKIPTASIQISGRIRLSKPMLIAN
# Biological target: Physalis mottle virus (PhMV) virus-like particle, unmodified (assembled coat protein) (Physalis mottle virus) (UniProt P36351)
# Assay: SEC + other: transmission electron microscopy; purified VLPs in PBS pH 7.4; negatively stained particles by TEM; SEC of native PhMV and the VLP-based vaccines, with and without loaded CpG-ODN 1585; both purified
binder,measurement,value
B1,binding,binds
